Experimental data: PubChem BioAssay AID493246 (Drosophila RNAi Screening Center, 2011)
Assay: 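Genome-wide search for dsRNAs that reduce cell number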 (primary screen). Cell system: Drosophila Kc and S2R+ cells. Knock-down reagent: long dsRNA against Drosophila genes. Measurement: 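Cell number per well after knock-down, printed as raw plate values; calls were based on per-plate z-scores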. Scale: Kc cell number and S2R+ cell number: higher = more cells remaining. Call rule: 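Counted as a hit if cell number falls by a z-score of at least 3 within its plate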.
In all, the deposit lists about 21,000 reagents; this is a random part of those with a known target gene and a result. In the full data, 429 (2%) got an active call. 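Values are raw and not normalised between plates; calls rest on per-plate z-scores that were not deposited.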 A number with no mark means an inactive call. Reagents against one gene are numbered here. Names joined by + are all predicted targets of the reagent. Not given: the amount of reagent, the time to read-out.

| gene | dsRNA no. | Kc cell number, rep 1 | Kc cell number, rep 2 | S2R+ cell number, rep 1 | S2R+ cell number, rep 2 |
| --- | --- | --- | --- | --- | --- |
| Npc1a (Niemann-Pick type C-1a) | 1 | 1.56e6 | 1.59e6 | 1.17e6 | 1.30e6 |
| row (relative of woc) | 1 | 1.06e6 (active) | 1.21e6 | 4.88e5 | 5.01e5 |
| row (relative of woc) | 2 | 1.76e6 | 1.83e6 | 1.16e6 | 1.31e6 |
| Upf1 (Upf1 RNA helicase) | 1 | 5.11e5 | – | 8.02e5 | – |
| Actn (alpha actinin) | 1 | 5.73e5 | – | 8.05e5 | – |
| Isha (Insulator su(Hw) mRNA adaptor) | 1 | 1.36e6 | 1.41e6 | 9.91e5 | 1.12e6 |
| Arl1 (ADP ribosylation factor-like 1) | 1 | 1.21e6 | 1.25e6 | 1.27e6 | 1.36e6 |
| CG12995 | 1 | 1.53e6 | 1.58e6 | 1.18e6 | 1.29e6 |
| CR18275 + CR18166 + CG32817 | 1 | 1.22e6 | 1.62e6 | 1.06e6 | 1.12e6 |
| Adck5 (aarF domain containing kinase 5) | 1 | 1.38e6 | 1.54e6 | 1.41e6 | 1.54e6 |
| enok (enoki mushroom) | 1 | 1.54e6 | 1.66e6 | 1.00e6 | 9.97e5 |
| Vha16-5 (Vacuolar H[+] ATPase 16kD subunit 5) | 1 | 1.43e6 | 1.78e6 | 1.44e6 | 1.57e6 |
| bi (bifid) | 1 | 1.63e6 | 1.58e6 | 1.07e6 | 1.18e6 |
| CG46385 | 1 | 5.93e5 (active) | 7.96e5 | 3.78e5 | 4.59e5 |
| CG46385 | 2 | 1.67e6 | 1.65e6 | 1.39e6 | 1.61e6 |
| Nlp (Nucleoplasmin) | 1 | 4.75e5 | – | 7.08e5 | – |
| CG11317 | 1 | 5.63e5 | – | 7.82e5 | – |
| CG31468 | 1 | 1.23e6 | 1.47e6 | 1.12e6 | 1.13e6 |
| tefu (telomere fusion) | 1 | 1.42e6 | 1.49e6 | 9.38e5 | 1.12e6 |
| Fer2 (48 related 2) | 1 | 1.54e6 | 1.78e6 | 1.08e6 | 1.18e6 |
| Cog3 (Component of oligomeric golgi complex 3) | 1 | 1.17e6 | 1.33e6 | 8.69e5 | 8.36e5 |
| CG1598 | 1 | 1.58e6 | 1.70e6 | 1.29e6 | 1.45e6 |
| CG13318 | 1 | 1.56e6 | 1.97e6 | 1.26e6 | 1.35e6 |
| flap (flapper) | 1 | 5.88e5 | – | 7.85e5 | – |
| flap (flapper) | 2 | 1.37e6 | 1.39e6 | 1.05e6 | 1.02e6 |
| comt (comatose) | 1 | 1.59e6 | 1.59e6 | 8.37e5 | 9.71e5 |
| msi (musashi) | 1 | 8.41e5 (active) | 8.39e5 | 9.67e5 | 1.07e6 |
| Rab7 | 1 | 1.51e6 | 1.50e6 | 1.15e6 | 1.23e6 |
| Atac2 (Ada2a-containing complex component 2) | 1 | 1.34e6 | 1.43e6 | 1.02e6 | 1.13e6 |
| Cep89 (Centrosomal protein 89kDa) | 1 | 1.65e6 | 1.78e6 | 1.44e6 | 1.57e6 |
| ccb (central complex broad) | 1 | 1.58e6 | 1.59e6 | 1.13e6 | 1.26e6 |
| IRSp53 (Insulin receptor substrate 53 kDa) | 1 | 1.37e6 | 1.31e6 | 1.11e6 | 1.25e6 |
| CG42582 (retired record) | 1 | 1.41e6 | 1.70e6 | 1.26e6 | 1.22e6 |
| Npc2e (Niemann-Pick type C-2e) | 1 | 1.69e6 | 1.72e6 | 1.15e6 | 1.33e6 |
| IntS1 (Integrator 1) | 1 | 1.02e6 | 1.11e6 | 8.52e5 | 9.62e5 |
| CG14174 | 1 | 1.19e6 | 1.19e6 | 1.26e6 | 1.34e6 |
| Alp4 (Alkaline phosphatase 4) | 1 | 1.45e6 | 1.47e6 | 1.07e6 | 1.11e6 |

Reagents above with an active call, once more:
| gene | dsRNA no. | Kc cell number, rep 1 | Kc cell number, rep 2 | S2R+ cell number, rep 1 | S2R+ cell number, rep 2 |
| --- | --- | --- | --- | --- | --- |
| row (relative of woc) | 1 | 1.06e6 (active) | 1.21e6 | 4.88e5 | 5.01e5 |
| CG46385 | 1 | 5.93e5 (active) | 7.96e5 | 3.78e5 | 4.59e5 |
| msi (musashi) | 1 | 8.41e5 (active) | 8.39e5 | 9.67e5 | 1.07e6 |

The listing continues:
| gene | dsRNA no. | Kc cell number, rep 1 | Kc cell number, rep 2 | S2R+ cell number, rep 1 | S2R+ cell number, rep 2 |
| --- | --- | --- | --- | --- | --- |
| Rab26 | 1 | 1.21e6 | 1.46e6 | 1.10e6 | 1.23e6 |
| Rab26 | 2 | 1.55e6 | 1.67e6 | 1.31e6 | 1.42e6 |
| Rab26 | 3 | 1.66e6 | 1.77e6 | 1.35e6 | 1.56e6 |
| CG16998 | 1 | 1.41e6 | 1.35e6 | 1.22e6 | 1.21e6 |
| CG8298 | 1 | 1.65e6 | 1.73e6 | 1.37e6 | 1.43e6 |
| CG42360 | 1 | 1.50e6 | 1.55e6 | 1.30e6 | 1.39e6 |
| ohgt (ohgata) | 1 | 1.71e6 | 1.70e6 | 1.36e6 | 1.53e6 |
| Gas41 | 1 | 1.21e6 | 1.32e6 | 5.73e5 | 7.63e5 |
| CG13594 | 1 | 1.58e6 | 1.69e6 | 1.39e6 | 1.49e6 |
| side-VI (sidestep VI) | 1 | 1.67e6 | 1.64e6 | 1.12e6 | 1.38e6 |
| side-VI (sidestep VI) | 2 | 1.74e6 | 1.79e6 | 1.16e6 | 1.43e6 |
| side-VI (sidestep VI) | 3 | 1.45e6 | 1.59e6 | 1.36e6 | 1.47e6 |
| side-VI (sidestep VI) | 4 | 1.54e6 | 1.63e6 | 1.35e6 | 1.35e6 |
| CG3071 | 1 | 5.11e5 | – | 8.34e5 | – |
| SP2353 | 1 | 1.54e6 | 1.58e6 | 1.08e6 | 1.18e6 |
| CG10920 | 1 | 1.57e6 | 1.56e6 | 1.16e6 | 1.28e6 |
| CG17193 | 1 | 1.40e6 | 1.38e6 | 1.12e6 | 1.17e6 |
| CG34398 | 1 | 1.85e6 | 1.79e6 | 1.10e6 | 1.27e6 |
| CG34398 | 2 | 1.64e6 | 1.70e6 | 1.20e6 | 1.41e6 |
| CG34398 | 3 | 8.76e5 | 1.07e6 | 1.10e6 | 8.75e5 |
| CG34398 | 4 | 1.62e6 | 1.78e6 | 1.29e6 | 1.47e6 |
| fzr2 (fizzy-related 2) | 1 | 1.36e6 | 1.48e6 | 1.09e6 | 1.09e6 |
